# Data taken from the supplement of paper PMC8728848.
# Some of the results follow.
# B1: DC-Sign-R (Homo sapiens), Q9H2X3 (protein)
# chain: MSDSKEPRVQQLGLLEEDPTTSGIRLFPRDFQFQQIHGHKSSTGCLGHGALVLQLLSFMLLAGVLVAILVQVSKVPSSLSQEQSEQDAIYQNLTQLKAAVGELSEKSKLQEIYQELTQLKAAVGELPEKSKLQEIYQELTRLKAAVGELPEKSKLQEIYQELTRLKAAVGELPEKSKLQEIYQELTRLKAAVGELPEKSKLQEIYQELTELKAAVGELPEKSKLQEIYQELTQLKAAVGELPDQSKQQQIYQELTDLKTAFERLCRHCPKDWTFFQGNCYFMSNSQRNWHDSVTACQEVRAQLVVIKTAEEQNFLQLQTSRSNRFSWMGLSDLNQEGTWQWVDGSPLSPSFQRYWNSGEPNNSGNEDCAEFSGSGWNDNRCDVDNYWICKKPAACFRDE
# How the values were obtained:
# Test in all cases: glycan array binding signal (z-score within array); higher = stronger binding
# Conditions in all cases: glycan notation: IUPAC condensed, linker removed
# [1] = biological target: Neu5Ac(a2-3)Gal(b1-3)GlcNAc(b1-2)Man
# Summary of the method: (§1)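 The binding signal is a Z-score computed within each array. Data were drawn from 3228 arrays in the Consortium for Functional Glycomics database, restricted to those with a known protein sequence. Scores were averaged over arrays of the same protein sequence at different concentrations or buffers, and over linkers, and negative values can be taken as non-binding.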
# [2] = biological target: Neu5Ac(a2-3)Gal(b1-3)GlcNAc(b1-2)Man(a1-3)[GlcNAc(b1-4)][Neu5Ac(a2-3)Gal(b1-3)GlcNAc(b1-2)Man(a1-6)]Man(b1-4)GlcNAc(b1-4)GlcNAc
# Summary of the method: as §1
# [3] = biological target: Neu5Ac(a2-3)Gal(b1-3)GlcNAc(b1-2)Man(a1-3)[Neu5Ac(a2-3)Gal(b1-3)GlcNAc(b1-2)Man(a1-6)]Man(b1-4)GlcNAc(b1-4)GlcNAc
# Summary of the method: as §1
# [4] = biological target: Neu5Ac(a2-3)Gal(b1-3)GlcNAc(b1-3)Gal(b1-3)GlcNAc
# Summary of the method: as §1
# [5] = biological target: Neu5Ac(a2-3)Gal(b1-3)GlcNAc(b1-3)Gal(b1-4)GlcNAc
# Summary of the method: as §1
# [6] = biological target: Neu5Ac(a2-3)Gal(b1-3)GlcNAc(b1-3)GalNAc
# Summary of the method: as §1
# [7] = biological target: Neu5Ac(a2-3)Gal(b1-3)GlcNAc(b1-4)Gal(b1-4)Glc
# Summary of the method: as §1
# [8] = biological target: Neu5Ac(a2-3)Gal(b1-3)GlcNAc(b1-6)GalNAc
# Summary of the method: as §1
# [9] = biological target: Neu5Ac(a2-3)Gal(b1-3)GlcNAc6S
# Summary of the method: as §1
# [10] = biological target: Neu5Ac(a2-3)Gal(b1-3)[Fuc(a1-4)]GlcNAc
# Summary of the method: as §1
# [11] = biological target: Neu5Ac(a2-3)Gal(b1-3)[Fuc(a1-4)]GlcNAc(b1-3)Gal(b1-3)[Fuc(a1-4)]GlcNAc
# Summary of the method: as §1
# [12] = biological target: Neu5Ac(a2-3)Gal(b1-3)[Fuc(a1-4)]GlcNAc(b1-3)Gal(b1-4)[Fuc(a1-3)]GlcNAc
# Summary of the method: as §1
# [13] = biological target: Neu5Ac(a2-3)Gal(b1-3)[GlcNAc(b1-6)]GalNAc
# Summary of the method: as §1
# [14] = biological target: Neu5Ac(a2-3)Gal(b1-3)[Neu5Ac(a2-6)]GalNAc
# Summary of the method: as §1
# [15] = biological target: Neu5Ac(a2-3)Gal(b1-3)[Neu5Ac(a2-6)]GlcNAc(b1-3)[Fuc(a1-3)[Gal(b1-4)]GlcNAc(b1-6)]Gal(b1-4)Glc
# Summary of the method: as §1
# [16] = biological target: Neu5Ac(a2-3)Gal(b1-3)]Neu5Ac(a2-3)Gal(b1-4)]GlcNAc
# Summary of the method: as §1
# Neu5Ac(a2-3)Gal(b1-4)Glc = biological target: Neu5Ac(a2-3)Gal(b1-4)Glc
# Summary of the method: as §1
# [17] = biological target: Neu5Ac(a2-3)Gal(b1-4)GlcNAc
# Summary of the method: as §1
# [18] = biological target: Neu5Ac(a2-3)Gal(b1-4)GlcNAc(b1-2)Man
# Summary of the method: as §1
# [19] = biological target: Neu5Ac(a2-3)Gal(b1-4)GlcNAc(b1-2)Man(a1-3)[GlcNAc(b1-4)][Neu5Ac(a2-3)Gal(b1-4)GlcNAc(b1-2)Man(a1-6)]Man(b1-4)GlcNAc(b1-4)GlcNAc
# Summary of the method: as §1
# [20] = biological target: Neu5Ac(a2-3)Gal(b1-4)GlcNAc(b1-2)Man(a1-3)[Neu5Ac(a2-3)Gal(b1-4)GlcNAc(b1-2)Man(a1-6)]Man(b1-4)GlcNAc(b1-4)GlcNAc
# Summary of the method: as §1
# [21] = biological target: Neu5Ac(a2-3)Gal(b1-4)GlcNAc(b1-2)Man(a1-3)[Neu5Ac(a2-3)Gal(b1-4)GlcNAc(b1-2)Man(a1-6)]Man(b1-4)GlcNAc(b1-4)[Fuc(a1-6)]GlcNAc
# Summary of the method: as §1
# [22] = biological target: Neu5Ac(a2-3)Gal(b1-4)GlcNAc(b1-2)Man(a1-3)[Neu5Ac(a2-6)Gal(b1-4)GlcNAc(b1-2)Man(a1-6)]Man(b1-4)GlcNAc(b1-4)GlcNAc
# Summary of the method: as §1
# [23] = biological target: Neu5Ac(a2-3)Gal(b1-4)GlcNAc(b1-2)[Neu5Ac(a2-3)Gal(b1-4)GlcNAc(b1-4)]Man(a1-3)[GlcNAc(b1-4)][Neu5Ac(a2-3)Gal(b1-4)GlcNAc(b1-2)[Neu5Ac(a2-3)Gal(b1-4)GlcNAc(b1-6)]Man(a1-6)]Man(b1-4)GlcNAc(b1-4)GlcNAc
# Summary of the method: as §1
# [24] = biological target: Neu5Ac(a2-3)Gal(b1-4)GlcNAc(b1-2)[Neu5Ac(a2-3)Gal(b1-4)GlcNAc(b1-4)]Man(a1-3)[GlcNAc(b1-4)][Neu5Ac(a2-3)Gal(b1-4)GlcNAc(b1-4)Man(a1-6)]Man(b1-4)GlcNAc(b1-4)GlcNAc
# Summary of the method: as §1
# [25] = biological target: Neu5Ac(a2-3)Gal(b1-4)GlcNAc(b1-2)[Neu5Ac(a2-3)Gal(b1-4)GlcNAc(b1-6)]Man(a1-6)[Neu5Ac(a2-3)Gal(b1-4)GlcNAc(b1-2)Man(a1-3)]Man(b1-4)GlcNAc(b1-4)GlcNAc
# Summary of the method: as §1
# [26] = biological target: Neu5Ac(a2-3)Gal(b1-4)GlcNAc(b1-2)[Neu5Ac(a2-3)Gal(b1-4)GlcNAc(b1-6)]Man(a1-6)[Neu5Ac(a2-3)Gal(b1-4)GlcNAc(b1-2)Man(a1-3)][GlcNAc(b1-4)]Man(b1-4)GlcNAc(b1-4)GlcNAc
# Summary of the method: as §1
# [27] = biological target: Neu5Ac(a2-3)Gal(b1-4)GlcNAc(b1-3)Gal
# Summary of the method: as §1
# [28] = biological target: Neu5Ac(a2-3)Gal(b1-4)GlcNAc(b1-3)Gal(b1-3)GlcNAc
# Summary of the method: as §1
# [29] = biological target: Neu5Ac(a2-3)Gal(b1-4)GlcNAc(b1-3)Gal(b1-4)GlcNAc
# Summary of the method: as §1
# [30] = biological target: Neu5Ac(a2-3)Gal(b1-4)GlcNAc(b1-3)Gal(b1-4)GlcNAc(b1-2)Man(a1-3)[Neu5Ac(a2-3)Gal(b1-4)GlcNAc(b1-3)Gal(b1-4)GlcNAc(b1-2)Man(a1-6)]Man(b1-4)GlcNAc(b1-4)GlcNAc
# Summary of the method: as §1
# [31] = biological target: Neu5Ac(a2-3)Gal(b1-4)GlcNAc(b1-3)Gal(b1-4)GlcNAc(b1-3)Gal(b1-4)GlcNAc
# Summary of the method: as §1
# [32] = biological target: Neu5Ac(a2-3)Gal(b1-4)GlcNAc(b1-3)Gal(b1-4)GlcNAc(b1-3)Gal(b1-4)GlcNAc(b1-2)Man(a1-3)[Neu5Ac(a2-3)Gal(b1-4)GlcNAc(b1-3)Gal(b1-4)GlcNAc(b1-3)Gal(b1-4)GlcNAc(b1-2)Man(a1-6)]GalNAc
# Summary of the method: as §1
# [33] = biological target: Neu5Ac(a2-3)Gal(b1-4)GlcNAc(b1-3)Gal(b1-4)GlcNAc(b1-3)GalNAc
# Summary of the method: as §1
# [34] = biological target: Neu5Ac(a2-3)Gal(b1-4)GlcNAc(b1-3)Gal(b1-4)GlcNAc(b1-3)[Neu5Ac(a2-3)Gal(b1-4)GlcNAc(b1-3)Gal(b1-4)GlcNAc(b1-6)]GalNAc
# Summary of the method: as §1
# [35] = biological target: Neu5Ac(a2-3)Gal(b1-4)GlcNAc(b1-3)Gal(b1-4)GlcNAc(b1-6)[Gal(b1-3)]GalNAc
# Summary of the method: as §1
# [36] = biological target: Neu5Ac(a2-3)Gal(b1-4)GlcNAc(b1-3)Gal(b1-4)[Fuc(a1-3)]GlcNAc
# Summary of the method: as §1
# [37] = biological target: Neu5Ac(a2-3)Gal(b1-4)GlcNAc(b1-3)GalNAc
# Summary of the method: as §1
binder,measurement,setting,value
B1,glycan array binding signal (z-score),[1],0.07
same,glycan array binding signal (z-score),[2],1.2
same,glycan array binding signal (z-score),[3],-0.611
same,glycan array binding signal (z-score),[4],-0.501
same,glycan array binding signal (z-score),[5],-0.77
same,glycan array binding signal (z-score),[6],-0.193
same,glycan array binding signal (z-score),[7],0.657
same,glycan array binding signal (z-score),[8],-0.39
same,glycan array binding signal (z-score),[9],-0.544
same,glycan array binding signal (z-score),[10],-0.063
same,glycan array binding signal (z-score),[11],-0.121
same,glycan array binding signal (z-score),[12],-0.503
same,glycan array binding signal (z-score),[13],2.7
same,glycan array binding signal (z-score),[14],-0.105
same,glycan array binding signal (z-score),[15],-0.178
same,glycan array binding signal (z-score),[16],-0.405
same,glycan array binding signal (z-score),Neu5Ac(a2-3)Gal(b1-4)Glc,-0.705
same,glycan array binding signal (z-score),[17],-0.569
same,glycan array binding signal (z-score),[18],-0.09
same,glycan array binding signal (z-score),[19],-0.036
same,glycan array binding signal (z-score),[20],-0.881
same,glycan array binding signal (z-score),[21],-0.313
same,glycan array binding signal (z-score),[22],-0.873
same,glycan array binding signal (z-score),[23],2.27
same,glycan array binding signal (z-score),[24],1.59
same,glycan array binding signal (z-score),[25],1.06
same,glycan array binding signal (z-score),[26],-0.749
same,glycan array binding signal (z-score),[27],-0.358
same,glycan array binding signal (z-score),[28],-0.629
same,glycan array binding signal (z-score),[29],-0.517
same,glycan array binding signal (z-score),[30],1.11
same,glycan array binding signal (z-score),[31],-0.733
same,glycan array binding signal (z-score),[32],0.027
same,glycan array binding signal (z-score),[33],2.49
same,glycan array binding signal (z-score),[34],1.82
same,glycan array binding signal (z-score),[35],-0.037
same,glycan array binding signal (z-score),[36],-0.066
same,glycan array binding signal (z-score),[37],1.54

# A portion from further up, for reference:
binder,measurement,setting,value
B1,glycan array binding signal (z-score),[4],-0.501
same,glycan array binding signal (z-score),[5],-0.77
same,glycan array binding signal (z-score),[6],-0.193
